# Over roughly 33,000 sequences, “E-score (-0.5 to 0.5)” has its median near -0.0014; the highest 2% begin near 0.25. Some of the results follow.
# Biological target: T1, Cad1 (UniProt P24813)
# T1 sequence: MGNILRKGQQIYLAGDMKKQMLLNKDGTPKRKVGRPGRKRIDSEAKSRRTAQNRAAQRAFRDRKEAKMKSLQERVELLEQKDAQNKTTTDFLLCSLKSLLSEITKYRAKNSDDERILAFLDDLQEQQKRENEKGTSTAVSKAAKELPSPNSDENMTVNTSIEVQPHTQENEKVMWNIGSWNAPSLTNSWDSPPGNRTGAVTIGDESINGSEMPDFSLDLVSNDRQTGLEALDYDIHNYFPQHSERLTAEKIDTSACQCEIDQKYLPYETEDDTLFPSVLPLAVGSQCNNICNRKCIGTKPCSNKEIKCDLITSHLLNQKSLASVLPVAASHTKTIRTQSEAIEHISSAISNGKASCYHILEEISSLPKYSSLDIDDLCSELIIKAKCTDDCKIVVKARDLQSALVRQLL
# Experiment: PBM E-score (8-mer binding enrichment) (E-score (-0.5 to 0.5)); higher = stronger / more preferred TF binding
# Details: protein concentration: 100 nM; construct: GST-full length
# Method in brief: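 Full-length yeast transcription factors or their DNA-binding domains, GST-tagged and expressed with PURExpress, were applied at about 100-200 nM to universal all-10-mer Agilent arrays. These arrays had been made double-stranded by primer extension on fresh or once-stripped slides. Detection used fluorescent anti-GST, normalisation used masliner, and E-scores for ungapped eight-base words pooled with reverse complements came from the Universal PBM Analysis Suite.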
row,Sequence,PBM E-score
1,GCAATCCC,-0.0824
2,AAGCAGCG,0.104
3,ACAGTCGA,-0.25
4,AAAAGAAA,0.101
5,GCACTACC,0.063
6,CTGTTCTC,0.00998
7,CGCGAACC,0.0513
8,ATTCCTGC,0.0949
9,CGACAAAG,0.131
10,AAGTTTTC,0.178
11,GCAAACAC,-0.0216
12,GAGTCTCC,0.0534
13,CCCTCGGC,-0.197
14,CAAATCTA,0.124
15,CAGCCCCA,-0.0238
16,CCTATGAA,-0.1
17,GGATACAA,0.0493
18,GCAAGGTA,-0.0924
19,CAAAGGCG,-0.07
20,ATTGTGAA,0.0555
21,TGGGGACA,-0.214
22,AGACATTA,0.0651
23,GAGTCTCA,-0.119
24,CCTTAAAC,-0.032

row,Sequence,PBM E-score
1,CGGACCGA,0.134
2,CATTATTA,0.241
3,ACCTCGAG,0.22
4,CACCGCGG,0.215
5,ACCTCACA,-0.0106
6,AATACGAC,-0.1
7,CGAGAGAG,-0.0145
8,AACATTCA,0.0564
9,GGCGGCCC,-0.172
10,CCATTAGG,-0.337
11,GTCGTTGA,-0.0827
12,CGAACGAG,-0.03
13,GGCCATAA,0.0255
14,CCGGATAC,-0.0652
15,AATACATC,0.157
16,AGCGGCTC,-0.0559
17,AATCTGGA,-0.00706
18,CTTTCTAA,0.154
19,ATACCCCA,0.0157
20,ACTTACTA,0.184
21,CGACTCAG,-0.0921
22,AGGATCAA,0.0592
23,ATAATCTG,-0.109
24,AAATCCCT,-0.0454

# For reference, some entries already given:
row,Sequence,PBM E-score
6,AATACGAC,-0.1
7,CGAGAGAG,-0.0145
8,AACATTCA,0.0564
9,GGCGGCCC,-0.172

# Part of the list above in another layout.
row | Sequence | PBM E-score
4 | CACCGCGG | 0.215
22 | AGGATCAA | 0.0592

# Next entries follow.

row,Sequence,PBM E-score
1,ACCCCACC,0.00584
2,CAAGATCA,-0.122
3,AGCTATCC,-0.222
4,TAGTGTGA,-0.166
5,AGTCGCGA,0.285
6,AAGTTACA,0.0493
7,ACAAATGG,0.122
8,CTGTACTA,0.16
9,CTACACGC,-0.0937
10,AGAAGACC,-0.16
11,GATTAAAA,0.214
12,CACATGGC,-0.00544
13,CATACCAC,0.0561
14,CCGCGTGC,0.141
15,AGGTTCAT,-0.14
16,CGTAACTC,-0.138
17,ACACACCC,0.041
18,TGGATAAA,0.092
19,ACGTATCC,-0.16
20,CGTTGTCC,0.122
21,CCCTGGAA,-0.278
22,AGCACGGA,0.0459
23,TCACAAAA,0.253
24,CTTGTGTC,0.073

row,Sequence,PBM E-score
1,CCCGGGAC,-0.1
2,CTATGGCC,0.00017
3,CCTGCCGA,-0.0102
4,TCCATAGA,-0.0153
5,GTACACTA,0.0288
6,ATGCCAAG,0.00268
7,CCAACTCG,0.0519
8,ACGGGTTA,-0.231
9,CCCGAGGC,-0.068
10,CTCTAGTA,-0.129
11,AATTCTTC,0.0185
12,GCTCGTGA,-0.154
13,ACCACGAT,0.133
14,AGTAGTCC,-0.162
15,AAGTGGCG,0.0989
16,CATTCTGG,-0.0809
17,CTGAAGGA,-0.0928
18,CTCTAACA,0.0177
19,CATTACAC,0.0518
20,GGTTCTAA,0.122
21,CGATATGC,0.194
22,GTCCACCA,-0.106

# Reference: the supplement of paper PMC3334620
